The text below walks through data of PMC6554399.

Protein sequences, listed by entry. Tags and fused reporters are not part of them. Residues count along the entry.
UniProt P06276, residues 29-602: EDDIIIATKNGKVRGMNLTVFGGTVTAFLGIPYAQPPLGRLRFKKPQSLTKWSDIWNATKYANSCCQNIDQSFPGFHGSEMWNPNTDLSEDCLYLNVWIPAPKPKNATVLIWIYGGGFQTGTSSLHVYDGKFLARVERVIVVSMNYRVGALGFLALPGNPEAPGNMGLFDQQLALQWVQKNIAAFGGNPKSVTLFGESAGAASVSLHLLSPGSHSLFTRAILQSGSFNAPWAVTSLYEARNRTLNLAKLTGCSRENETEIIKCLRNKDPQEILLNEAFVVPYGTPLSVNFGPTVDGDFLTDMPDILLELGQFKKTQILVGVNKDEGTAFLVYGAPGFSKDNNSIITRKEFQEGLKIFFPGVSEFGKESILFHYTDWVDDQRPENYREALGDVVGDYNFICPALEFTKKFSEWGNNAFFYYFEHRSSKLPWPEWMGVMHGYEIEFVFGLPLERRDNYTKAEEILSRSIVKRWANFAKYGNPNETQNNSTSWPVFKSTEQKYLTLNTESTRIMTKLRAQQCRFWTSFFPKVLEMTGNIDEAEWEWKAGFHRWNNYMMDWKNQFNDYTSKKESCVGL
UniProt P18065, residues 36-325: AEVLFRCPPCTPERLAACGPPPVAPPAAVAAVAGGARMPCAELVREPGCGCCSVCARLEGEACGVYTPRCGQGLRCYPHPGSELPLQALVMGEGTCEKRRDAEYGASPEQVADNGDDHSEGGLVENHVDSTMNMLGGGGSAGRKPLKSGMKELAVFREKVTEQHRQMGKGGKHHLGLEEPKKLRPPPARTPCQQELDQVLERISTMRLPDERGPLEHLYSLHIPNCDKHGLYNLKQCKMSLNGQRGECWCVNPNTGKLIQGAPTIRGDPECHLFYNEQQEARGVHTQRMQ

This experiment deals with butyrylcholine esterase (BCHE) (human (endogenous in plasma)) (UniProt P06276). The experiment in a line: multiplexed sandwich immunoassay (Luminex bead array); capture antibody against one protein on colour-coded magnetic beads, labelled detection antibody against the other protein, streptavidin-R-PE read-out; EDTA plasma diluted from 1:20 in 4-fold steps (6 points, duplicate) in PVXC buffer with 10% rabbit IgG, heat-treated (56 °C, 30 min) or untreated, overnight.

No constants are given. Whether binding was seen depends on the method and setting. Some entries that bind do so weakly or less than the wild type.

“insulin growth factor binding protein 2 (IGFBP2) (from UniProt P18065 36-325)”: the binding entry was “binds”.
